Test results taken from the supplement of paper PMC6078165.

Test system: Hs578T
Test: relative JC-1 red fluorescence (viability) vs pre-drug, coculture with fibroblast (fraction); higher = more viable cancer cells
Method: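 JC-1 labelled TNBC cells cocultured 1:1 (1,500 cells each) with CellTrace Violet stained primary or stromal fibroblasts in 384-well plates in FluoroBrite medium, treated with one of 42 anticancer drugs at 0.1, 1, 10 or 100 uM. JC-1 red fluorescence (mitochondrial integrity in cancer cells only) was read by plate reader every 8 h for 72 h. Values are normalised to each well's pre-drug value. The stock of one drug was tenfold lower, so its dose labels may be too high.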

CC(C)C[C@H](NC(=O)[C@@H](COC(C)(C)C)NC(=O)[C@H](Cc1ccc(O)cc1)NC(=O)[C@H](CO)NC(=O)[C@H](Cc1c[nH]c2ccccc12)NC(=O)[C@H](Cc1cnc[nH]1)NC(=O)[C@@H]1CCC(=O)N1)C(=O)N[C@@H](CCCNC(=N)N)C(=O)N1CCC[C@H]1C(=O)NNC(N)=O [Goserelin]
relative JC-1 red fluorescence
Settings	8 h	16 h	24 h	32 h	40 h	48 h	56 h	64 h	72 h
0.1 µM	0.866	0.797	0.763	0.736	0.679	0.641	0.617	0.576	0.561
1 µM	0.871	0.759	0.732	0.7	0.644	0.609	0.594	0.557	0.533

relative JC-1 red fluorescence
Settings	8 h	16 h	24 h	32 h	40 h	48 h	56 h	64 h	72 h
0.1 µM, coculture fibroblast: C12385	0.827	0.701	0.641	0.549	0.48	0.449	0.425	0.415	0.406
0.1 µM, coculture fibroblast: H6013	0.8222	0.766	0.7102	0.684	0.631	0.609	0.583	0.574	0.546
0.1 µM, coculture fibroblast: H6019	0.761	0.684	0.6693	0.5942	0.563	0.542	0.516	0.499	0.478
0.1 µM, coculture fibroblast: H6076	0.947	0.879	0.813	0.788	0.746	0.738	0.704	0.693	0.688
0.1 µM, coculture fibroblast: H6231	0.879	0.767	0.727	0.693	0.63	0.604	0.556	0.542	0.529
0.1 µM, coculture fibroblast: HADF	0.843	0.746	0.66	0.598	0.5419	0.5112	0.48184	0.4741	0.4461
0.1 µM, coculture fibroblast: HCFa	0.828	0.75	0.688	0.63	0.565	0.531	0.5	0.4739	0.4368
0.1 µM, coculture fibroblast: HCPF	0.888	0.809	0.756	0.717	0.66	0.642	0.619	0.585	0.57
0.1 µM, coculture fibroblast: HHSteC	0.8788	0.77433	0.7195	0.664	0.612	0.579	0.553	0.526	0.494
0.1 µM, coculture fibroblast: HMF	0.886	0.797	0.747	0.724	0.667	0.638	0.603	0.587	0.573
0.1 µM, coculture fibroblast: HPFa	0.90761	0.804	0.727	0.662	0.602	0.562	0.516	0.494	0.452
0.1 µM, coculture fibroblast: HUF	0.865	0.719	0.696	0.587	0.525	0.489	0.454	0.4456	0.431
0.1 µM, coculture fibroblast: Hs27A	0.8857	0.7754	0.7423	0.6916	0.6359	0.618	0.574	0.562	0.51
0.1 µM, coculture fibroblast: Hs343T	0.938	0.823	0.729	0.696	0.619	0.581	0.5478	0.521	0.51
0.1 µM, coculture fibroblast: WS1	0.8603	0.755	0.684	0.602	0.537	0.506	0.466	0.448	0.438
1 µM, coculture fibroblast: C12385	0.834	0.734	0.6638	0.5698	0.508	0.465	0.435	0.421	0.414
1 µM, coculture fibroblast: H6013	0.9354	0.86	0.798	0.76	0.715	0.703	0.684	0.676	0.645
1 µM, coculture fibroblast: H6019	0.756	0.64867	0.651	0.557	0.52	0.498	0.471	0.447	0.418
1 µM, coculture fibroblast: H6076	0.8916	0.786	0.742	0.725	0.69	0.693	0.672	0.674	0.683
1 µM, coculture fibroblast: H6231	0.869	0.763	0.673	0.646	0.575	0.554	0.51	0.485	0.471
1 µM, coculture fibroblast: HADF	0.9028	0.8273	0.762	0.728	0.702	0.694	0.661	0.657	0.633
1 µM, coculture fibroblast: HCFa	0.865	0.758	0.7303	0.6798	0.619	0.599	0.565	0.548	0.507
1 µM, coculture fibroblast: HCPF	0.885	0.773	0.7019	0.675	0.602	0.574	0.56	0.5236	0.5057
1 µM, coculture fibroblast: HHSteC	0.9133	0.844	0.774	0.721	0.6721	0.631	0.6019	0.5771	0.53326
1 µM, coculture fibroblast: HMF	0.828	0.703	0.649	0.634	0.568	0.532	0.498	0.482	0.466
1 µM, coculture fibroblast: HPFa	0.9234	0.886	0.755	0.6768	0.611	0.563	0.505	0.479	0.427
1 µM, coculture fibroblast: HUF	0.8511	0.747	0.675	0.5626	0.501	0.4647	0.4285	0.417	0.412
1 µM, coculture fibroblast: Hs27A	0.8643	0.802	0.757	0.7141	0.661	0.643	0.598	0.579	0.529
1 µM, coculture fibroblast: Hs343T	0.866	0.764	0.6765	0.6633	0.613	0.585	0.551	0.533	0.545
1 µM, coculture fibroblast: WS1	0.7987	0.7	0.628	0.5302	0.4709	0.461	0.433	0.434	0.435

The reference is the same well before dosing, and untreated signal decays as well.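 Labels refer to human fibroblasts, largely primary: uterine (C12385, HUF), lung (H6013), bone (Hs27A), adrenal (HADF), skin (WS1), plus mammary HMF and breast cancer-associated Hs343T. Cancer lines are basal-like or mesenchymal-like triple-negative breast cancer. The paper counts as hits responses shifting over 3x the replicate standard deviation. The tissue of the other fibroblasts is not given here.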
